Assay results from PubChem BioAssay AID493014 (National Center for Advancing Translational Sciences (NCATS), 2011).
Screen size: about 340,000 compounds; about 170 (0.05%) were called active. The shares of active, inactive and inconclusive entries below differ from those in the screen. Calls come from the whole dose curve; as a rule, active = well fitted inhibition curve with a large enough effect in the signal ratio, with a control signal flat (not every such curve was filed as active); inconclusive = small, poorly fitted or top-dose-only effect, or effect the other way, or a change in a side signal; inactive = flat fitted curve, though single readings scatter; the % refers to the signal ratio. Where the call is inconclusive, the potency comes from a doubtful curve fit.
Potency is the fitted concentration of half-maximal effect.

Test: qHTS Assay to Find Inhibitors of Chronic Active B-Cell Receptor Signaling;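 for activity change, negative = inhibition: plate controls were basal doxycycline-induced cells for no effect and cells given 10 µM MG132 for full effect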
Conditions: ABC-DLBCL IkBa-CBG/CBR reporter, luminescence ratio (green luciferase fused to IkBa over red control in TMD8 lymphoma cells), 4 h; activity change, negative = inhibition: at 46.1 µM (top of the series)
Outline: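 TMD8 ABC-DLBCL cells carrying doxycycline-inducible green luciferase fused to IkappaBalpha plus unfused red luciferase were exposed to compounds (up to 46 uM) for 4 hrs at 37C. Activity came from the overlap-corrected green/red luminescence ratio.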
In the case of Cc1ccc(-n2cccc2/C=C2/NC(=O)N(CC(=O)Nc3cccc(C)c3)C2=O)cc1, the activity change, negative = inhibition is reported as inconclusive: 7.17%. In the case of O=C(CC(Cc1ccccc1)c1ccco1)NC1CCCCC1 (stereo not drawn), the “activity change, negative = inhibition” value is reported as inactive: 19.3%. For Cc1ccc2oc(C(=O)N(C)CCC(O)c3ccccc3)c(C)c2c1 (stereo not drawn), the activity change, negative = inhibition was inconclusive: -5.03%. For NC1=NN=C(N2N=C(c3ccccc3)CC2(O)C(F)(F)F)n2ncnc2C1 (stereo not drawn), the “activity change, negative = inhibition” value was inactive: 0.134%. In the case of Cc1cccc(CNc2ncnc3ccc(-c4ccc5c(c4)OCO5)cc23)c1, the Potency is reported as inconclusive: 16.4 µM [falling, single point] and the activity change, negative = inhibition is reported as inconclusive: -12.6%. In the case of CCn1c(=O)c2c(nc3n2CCCN3c2cccc(C)c2)n(C)c1=O, the “activity change, negative = inhibition” value is reported as inactive: 12.1%. For CC1Cc2nc(SCC(=O)Nc3nc4ccccc4s3)n(C)c(=O)c2S1 (stereo not drawn), the Potency was inconclusive: 32.6 µM [falling, single point]. In the case of COc1cc(/C=N/NC(=O)C[n+]2ccccc2)cc(OC)c1OC, the “activity change, negative = inhibition” value is reported as inactive: -0.166%. With CCOc1ccc(CCNC(=O)CCc2nc(-c3ccc(OC)cc3)no2)cc1OCC the activity change, negative = inhibition was inconclusive: 20.8%. For CCCOP(=O)(OCCC)c1c([N+](=O)[O-])cc(C(F)(F)F)cc1[N+](=O)[O-], the “activity change, negative = inhibition” value was inactive: 12.4%. For COc1ccccc1/C=N/n1c(N)c(S(=O)(=O)c2cccs2)c2nc3ccccc3nc21, the activity change, negative = inhibition was inconclusive: 2.83%. With Fc1ccc2[nH]c3c(N4CCN(Cc5ccc6c(c5)OCO6)CC4)ncnc3c2c1 the activity change, negative = inhibition was inconclusive: -11.2%. In the case of Fc1ccc(-c2csc(/C=C/c3ccc4c(c3)OCO4)n2)cc1, the activity change, negative = inhibition is reported as inconclusive: 10.4%. In the case of O=C1COc2ccccc2N1Cc1c(F)cccc1Cl, the activity change, negative = inhibition is reported as inconclusive: 0.313%. In the case of O=C(CCN1C(=O)NC2(CCCC2)C1=O)Nc1ccc(-c2nc3ccccc3s2)cc1, the “activity change, negative = inhibition” value is reported as inactive: -0.954%. In the case of O=C(COc1ccccc1)Nc1cccc2c1CCCC2, the activity change, negative = inhibition is reported as inconclusive: 26.7%. With COc1ccccc1NC(=O)Cn1cc(C#N)c2ccccc21 the activity change, negative = inhibition was inconclusive: 11.7%. With O=C(N/N=C/c1cn(-c2ccccc2)nc1-c1cc2ccccc2o1)c1ccccc1Br the Potency was inconclusive: 0.731 µM [rising, full curve, poor fit]. For Cc1cccc(C(=O)Nc2cccc(C(=O)N/N=C/c3ccc4c(c3)OCO4)c2)c1, the Potency was inconclusive: 17.8 µM [falling, partial curve, poor fit]. For Cc1nn(-c2ccccc2)c2c1C(c1ccc(F)cc1F)C(C#N)=C(N)O2 (stereo not drawn), the “activity change, negative = inhibition” value was inactive: 19.7%. In the case of CCCn1c(/N=C/c2c[nH]c3ccccc23)nc2ccccc21, the “activity change, negative = inhibition” value is reported as inactive: -12.6%. In the case of O=C(NCC(c1cccs1)S(=O)(=O)c1cccs1)c1ccccc1F (stereo not drawn), the “activity change, negative = inhibition” value is reported as inactive: 8.75%. With CSC1=NCCN1C(=O)C12CC3CC(CC(C3)C1)C2 the activity change, negative = inhibition was inconclusive: -1%. With CC1(C)C(C#N)=C(N)Oc2c1c(=O)oc1ccccc21 the Potency was inconclusive: 1 µM [falling, full curve, poor fit]. With COC(=O)C1CCN(Cc2cn(Cc3ccccc3)nc2-c2cc3ccccc3o2)CC1 the “activity change, negative = inhibition” value was inactive: -18.4%. For O=C(NCCCCc1ccccc1)c1ccc(Br)cc1, the activity change, negative = inhibition was inconclusive: 2.1%. With Nc1cc(Cl)nc(N/N=C/c2c(O)ccc3ccccc23)n1 the “activity change, negative = inhibition” value was inactive: 4.63%. In the case of CCN1CCN(C(=S)Nc2ccc([N+](=O)[O-])cc2)CC1, the activity change, negative = inhibition is reported as inconclusive: 10.4%. In the case of CC1CC(=O)c2cnc(Nc3ccccc3)nc2C1 (stereo not drawn), the Potency is reported as inconclusive: 16.4 µM [falling, partial curve]. For COc1ccc(NC(=O)C(Sc2nnc(-c3ccncc3)n2-c2ccccc2C)c2ccccc2)cc1Cl (stereo not drawn), the activity change, negative = inhibition was inconclusive: 7.71%. In the case of c1ccc(CCNc2nc(-c3ccccn3)nc3ccccc23)cc1, the “activity change, negative = inhibition” value is reported as inactive: -0.37%. For CCc1ccc(C(=O)CSc2nc(C)cc(=O)[nH]2)cc1, the activity change, negative = inhibition was inconclusive: 29%. In the case of CC(=O)N1CCc2c(sc(NC(=O)C3CCCN3S(=O)(=O)c3cccs3)c2C#N)C1 (stereo not drawn), the activity change, negative = inhibition is reported as inconclusive: -0.139%. With COc1ccc([N+](=O)[O-])cc1NS(=O)(=O)c1cc(C(=O)NCc2cccnc2)ccc1Cl the activity change, negative = inhibition was inconclusive: 2.41%. With COc1ccc(C2c3c(oc4ccccc4c3=O)C(=O)N2c2ccc(C)cn2)cc1OC (stereo not drawn) the activity change, negative = inhibition was inconclusive: -0.412%. In the case of COc1cc2cnc(-c3ccccc3)c(C(=O)c3ccc(OCc4ccccc4)cc3)c2cc1OC, the activity change, negative = inhibition is reported as inconclusive: -0.377%. With Cc1c(C(=O)Nc2ccc3c(c2)OCCO3)sc2nc(-c3ccccc3)cn12 the activity change, negative = inhibition was inconclusive: 10.2%. For Cc1cc(Br)c(NC(=O)COn2nnc3ccc(S(C)(=O)=O)cc32)c(Br)c1, the “activity change, negative = inhibition” value was inactive: -3.11%. With Cc1cccc(N2CCN(C(=O)c3ccc4nc(-c5ccco5)c(-c5ccco5)nc4c3)CC2C)c1 (stereo not drawn) the activity change, negative = inhibition was inconclusive: 13.1%. In the case of CC1=NN(C(=O)CCc2ccccc2)C(O)(c2ccncc2)C1 (stereo not drawn), the “activity change, negative = inhibition” value is reported as inactive: -6.57%. For O=C(NCCCC1CCCC1)C1CCC(=O)N(Cc2cccc(C(F)(F)F)c2)C1 (stereo not drawn), the Potency was inconclusive: 35.5 µM [falling, partial curve, poor fit]. In the case of CC(C)Nc1cc(N2CCCC2)ccc1[N+](=O)[O-], the “activity change, negative = inhibition” value is reported as inactive: 5.45%. In the case of Cc1cccc(/C=N\N=C\c2cccc(C)c2)c1, the activity change, negative = inhibition is reported as inconclusive: 5.85%. In the case of Clc1cccc(-n2ncc3c(NC4CCCCC4)ncnc32)c1, the activity change, negative = inhibition is reported as inconclusive: -2.16%. For COc1cccc(/C=C/C(=O)Nc2ccc3c(c2)OCCO3)c1, the Potency was inconclusive: 14.1 µM [falling, partial curve]. For O=C(O)c1cc(N2N=C(C(F)(F)F)/C(=C/C=C/c3ccco3)C2=O)ccc1Cl, the activity change, negative = inhibition was inconclusive: 7.42%. With CCn1c(C)c(C(C)=O)c(N2CCCC2)nc1=S the “activity change, negative = inhibition” value was inactive: -1.6%. With COc1cc(C(=O)N/N=C/c2ccc(OC(=O)c3ccccc3)c(OC)c2)ccc1O the Potency was inconclusive: 11.2 µM [falling, partial curve]. For CC(C)Cc1nc(N2CCOCC2)c(C#N)c2c1COC(C)(C)C2, the “activity change, negative = inhibition” value was inactive: -3.59%. For CC(C)CCOc1ccc(C(=O)NCC(c2cccs2)N2CCOCC2)cc1 (stereo not drawn), the activity change, negative = inhibition was inconclusive: 7.69%. In the case of O=C(COc1ccc2c3c(c(=O)oc2c1)CCC3)NC1CCCCC1, the activity change, negative = inhibition is reported as inconclusive: 4.61%. For O=C(Nc1ccccc1Oc1ccccc1)c1ccccc1F, the activity change, negative = inhibition was inconclusive: 7.15%. For O=C(CCNS(=O)(=O)c1ccccc1)OCc1nnc(-c2ccccc2)o1, the “activity change, negative = inhibition” value was inactive: 0.718%. With NS(=O)(=O)c1ccc(Nc2nc(-c3ccc(O)cc3O)cs2)cc1 the “activity change, negative = inhibition” value was inactive: 4.83%. With CC(C(=O)OCc1nnc(-c2ccccc2)o1)N1C(=O)C2CCCCC2C1=O (stereo not drawn) the Potency was inconclusive: 22.4 µM [falling, single point]. In the case of COc1ccc(CCNC(=O)CN(c2ccccc2OC)S(=O)(=O)c2ccc(C)cc2)cc1, the activity change, negative = inhibition is reported as inconclusive: 0.258%. In the case of O=C(Nc1cccnc1Cl)c1ccc2c(Cl)c3c(nc2c1)CCC3, the Potency is reported as inconclusive: 2.51 µM [falling, partial curve, poor fit]. For CN(C)c1ccc(-c2nn3c(C4CCCCC4)nnc3s2)cc1, the Potency was inconclusive: 9.2 µM [rising, partial curve, poor fit]. For CCC(=O)Nc1nc(C)c(C(=O)Nc2cccc(Cl)c2)s1, the Potency was inconclusive: 12.6 µM [falling, partial curve]. With COc1ccc(OCC(O)Cn2c(=N)n(Cc3ccccc3)c3ccccc32)cc1 (stereo not drawn) the activity change, negative = inhibition was inconclusive: -11.5%. With O=C(Nc1ccc(Cl)cc1)N1CC=CCC1 the Potency was inconclusive: 14.1 µM [falling, partial curve, poor fit]. With c1ccc(-n2nnnc2NC2CCCCC2)cc1 the activity change, negative = inhibition was inconclusive: 0.743%. With Cc1snc(SCc2cccc(Cl)c2)c1C#N the “activity change, negative = inhibition” value was inactive: 2.93%. In the case of O=C(NC(=S)NCc1ccc(Cl)cc1)c1ccco1, the “activity change, negative = inhibition” value is reported as inactive: 6.67%. In the case of CCOC(=O)/C=C/C(=O)OCC(=O)Nc1cccc(Cl)c1Cl, the activity change, negative = inhibition is reported as inconclusive: 0.89%. For Cc1ccc(Cn2nnc3c(=O)n(CC(=O)N4CCN(c5ccccc5)CC4)cnc32)cc1, the “activity change, negative = inhibition” value was inactive: 3.76%. For COC(=O)C1=C(C)N=C2SC(C#N)=C(N)N2C1c1cccc(OC)c1 (stereo not drawn), the activity change, negative = inhibition was inconclusive: 0.833%. With CC(C)c1ccc(CN2CCN(C(=O)CCl)CC2)cc1 the Potency was inconclusive: 35.5 µM [falling, single point]. In the case of O=C(c1cc2cc(Br)ccc2oc1=O)N1CCCC1, the activity change, negative = inhibition is reported as inconclusive: -0.175%. With COc1ccc(O)c(/C=N/NC(=S)NCCc2ccccc2)c1 the Potency was inconclusive: 11.2 µM [falling, partial curve, poor fit]. With CCOC(=O)c1[nH]c2ccccc2c1NC(=O)COC the activity change, negative = inhibition was inconclusive: 9.24%. With CCOC(=O)C1=C(C)NC2=C(C(=O)C(C(=O)OCC)C(c3ccco3)C2)C1c1ccccn1 (stereo not drawn) the Potency was inconclusive: 6.51 µM [rising, partial curve, poor fit]. In the case of COc1ccc(C(=O)Oc2cccc(/C=N/NC(N)=S)c2)cc1, the activity change, negative = inhibition is reported as inconclusive: -12.2%. For COc1cccc(NC(=O)Nc2cc(NC(=O)Nc3cccc(OC)c3)c(C)nc2C)c1, the activity change, negative = inhibition was inconclusive: -6.49%. In the case of O=C(Cc1ccc(F)cc1)NC1CC(=O)N(c2ccc3c(c2)OCCO3)C1 (stereo not drawn), the “activity change, negative = inhibition” value is reported as inactive: 10.9%. For COCCN(Cc1cc2cc(C)c(C)cc2nc1Cl)C(=O)Nc1ccccc1, the “activity change, negative = inhibition” value was inactive: -5.85%. For CCCOC(=O)Nc1nnc(CCC)s1, the Potency was inconclusive: 29.1 µM [falling, single point]. With CC(C)c1ccccc1OCCCCCNCCO the Potency was inconclusive: 22.4 µM [falling, single point]. In the case of CC(NC(=O)COC(=O)c1ccco1)c1ccccc1 (stereo not drawn), the activity change, negative = inhibition is reported as inconclusive: 12.5%. For C=CC[C@@H](CC(=O)N(CCO)Cc1ccccc1)C(=O)N[C@@H](COC(=O)[C@@H](CC=C)Cc1ccc(F)cc1)Cc1c[nH]c2ccccc12, the activity change, negative = inhibition was inconclusive: -2.42%. For CCc1ccc(NC(=O)c2cc(S(=O)(=O)NC3CCCC3)ccc2F)cc1, the Potency was inconclusive: 6.31 µM [falling, single point]. In the case of CSc1oc(-c2ccco2)nc1S(=O)(=O)c1ccc(C)cc1, the “activity change, negative = inhibition” value is reported as inactive: -0.811%.
